No constants are given. Whether binding was seen depends on the method and setting. In cells and extracts the contact can be indirect. Some entries that bind do so weakly or less than the wild type.
How the values were obtained:
[1] = target: aryl hydrocarbon receptor (AhR), endogenous in Min6 cells (mouse) (UniProt P30561); assay: co-immunoprecipitation from Min6 cells
[2] = target: aryl hydrocarbon receptor nuclear translocator (ARNT), endogenous in Min6 cells (mouse) (UniProt P53762); assay: co-immunoprecipitation from Min6 cells
[3] = target: hypoxia inducible factor (HIF)-1α, endogenous in Min6 cells (mouse) (UniProt Q61221); assay: co-immunoprecipitation from Min6 cells
[4] = target: hypoxia inducible factor (HIF)-2α, endogenous in Min6 cells (mouse) (UniProt P97481); assay: co-immunoprecipitation from Min6 cells
[5] = target: aryl hydrocarbon receptor (AhR), endogenous in Min6 cells (mouse) (UniProt P30561); assay: co-immunoprecipitation from Min6 cells, Western blot
[6] = target: aryl hydrocarbon receptor nuclear translocator (ARNT), endogenous in Min6 cells (mouse) (UniProt P53762); assay: as above
[7] = target: hypoxia inducible factor (HIF)-1α, endogenous in Min6 cells (mouse) (UniProt Q61221); assay: as above
[8] = target: hypoxia inducible factor (HIF)-2α, endogenous in Min6 cells (mouse) (UniProt P97481); assay: as above
[9] = target: aryl hydrocarbon receptor (AhR), endogenous in Min6 cells (mouse) (UniProt P30561); assay: co-immunoprecipitation from Min6 nuclear extracts, Western blot for ARNT2
[10] = target: hypoxia inducible factor (HIF)-1α, endogenous in Min6 cells (mouse) (UniProt Q61221); assay: as above
[11] = target: hypoxia inducible factor (HIF)-2α, endogenous in Min6 cells (mouse) (UniProt P97481); assay: as above

Amino acid sequences for entries named in this document (tags omitted). Residues count along the entry.
UniProt P30561, residues 10-805: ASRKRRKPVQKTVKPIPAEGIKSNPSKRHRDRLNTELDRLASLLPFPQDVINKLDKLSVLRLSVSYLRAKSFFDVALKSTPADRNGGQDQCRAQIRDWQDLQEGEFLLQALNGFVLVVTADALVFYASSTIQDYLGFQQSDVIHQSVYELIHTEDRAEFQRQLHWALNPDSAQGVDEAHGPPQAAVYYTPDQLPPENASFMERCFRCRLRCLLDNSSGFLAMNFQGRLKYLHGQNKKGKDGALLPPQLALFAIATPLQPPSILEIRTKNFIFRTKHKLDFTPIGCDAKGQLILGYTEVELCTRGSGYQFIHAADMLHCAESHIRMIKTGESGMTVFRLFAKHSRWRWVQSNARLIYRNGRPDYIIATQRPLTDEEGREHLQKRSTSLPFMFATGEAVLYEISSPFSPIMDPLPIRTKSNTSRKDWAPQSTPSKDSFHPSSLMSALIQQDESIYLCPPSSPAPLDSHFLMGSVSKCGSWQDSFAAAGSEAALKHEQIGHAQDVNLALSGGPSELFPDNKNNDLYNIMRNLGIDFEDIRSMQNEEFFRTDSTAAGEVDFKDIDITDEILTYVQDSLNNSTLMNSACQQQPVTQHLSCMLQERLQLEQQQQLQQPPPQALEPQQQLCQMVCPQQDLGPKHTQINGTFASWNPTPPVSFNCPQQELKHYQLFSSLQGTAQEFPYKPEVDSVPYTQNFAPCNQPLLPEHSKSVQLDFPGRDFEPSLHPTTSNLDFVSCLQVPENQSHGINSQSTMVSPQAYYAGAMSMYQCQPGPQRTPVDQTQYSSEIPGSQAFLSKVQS
UniProt P53762, residues 2-791: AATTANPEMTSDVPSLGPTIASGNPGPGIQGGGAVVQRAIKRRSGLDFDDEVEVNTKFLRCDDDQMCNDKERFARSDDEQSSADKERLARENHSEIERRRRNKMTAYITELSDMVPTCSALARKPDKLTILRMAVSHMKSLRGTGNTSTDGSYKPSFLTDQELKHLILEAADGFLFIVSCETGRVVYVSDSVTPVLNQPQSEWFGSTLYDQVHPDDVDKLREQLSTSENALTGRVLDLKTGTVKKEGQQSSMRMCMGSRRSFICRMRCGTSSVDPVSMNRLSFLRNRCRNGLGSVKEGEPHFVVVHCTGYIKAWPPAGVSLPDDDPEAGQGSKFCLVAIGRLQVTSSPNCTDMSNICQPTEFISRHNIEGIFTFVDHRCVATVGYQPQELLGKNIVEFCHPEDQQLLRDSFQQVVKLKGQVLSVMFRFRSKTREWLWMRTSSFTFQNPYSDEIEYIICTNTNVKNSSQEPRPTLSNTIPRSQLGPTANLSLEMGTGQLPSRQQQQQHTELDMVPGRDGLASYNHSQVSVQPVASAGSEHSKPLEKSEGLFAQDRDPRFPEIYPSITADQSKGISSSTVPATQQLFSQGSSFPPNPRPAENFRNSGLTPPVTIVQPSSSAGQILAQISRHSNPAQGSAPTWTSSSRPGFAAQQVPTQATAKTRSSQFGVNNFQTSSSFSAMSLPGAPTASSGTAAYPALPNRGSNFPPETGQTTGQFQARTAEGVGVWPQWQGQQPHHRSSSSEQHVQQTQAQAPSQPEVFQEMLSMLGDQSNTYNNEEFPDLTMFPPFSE
UniProt Q61221: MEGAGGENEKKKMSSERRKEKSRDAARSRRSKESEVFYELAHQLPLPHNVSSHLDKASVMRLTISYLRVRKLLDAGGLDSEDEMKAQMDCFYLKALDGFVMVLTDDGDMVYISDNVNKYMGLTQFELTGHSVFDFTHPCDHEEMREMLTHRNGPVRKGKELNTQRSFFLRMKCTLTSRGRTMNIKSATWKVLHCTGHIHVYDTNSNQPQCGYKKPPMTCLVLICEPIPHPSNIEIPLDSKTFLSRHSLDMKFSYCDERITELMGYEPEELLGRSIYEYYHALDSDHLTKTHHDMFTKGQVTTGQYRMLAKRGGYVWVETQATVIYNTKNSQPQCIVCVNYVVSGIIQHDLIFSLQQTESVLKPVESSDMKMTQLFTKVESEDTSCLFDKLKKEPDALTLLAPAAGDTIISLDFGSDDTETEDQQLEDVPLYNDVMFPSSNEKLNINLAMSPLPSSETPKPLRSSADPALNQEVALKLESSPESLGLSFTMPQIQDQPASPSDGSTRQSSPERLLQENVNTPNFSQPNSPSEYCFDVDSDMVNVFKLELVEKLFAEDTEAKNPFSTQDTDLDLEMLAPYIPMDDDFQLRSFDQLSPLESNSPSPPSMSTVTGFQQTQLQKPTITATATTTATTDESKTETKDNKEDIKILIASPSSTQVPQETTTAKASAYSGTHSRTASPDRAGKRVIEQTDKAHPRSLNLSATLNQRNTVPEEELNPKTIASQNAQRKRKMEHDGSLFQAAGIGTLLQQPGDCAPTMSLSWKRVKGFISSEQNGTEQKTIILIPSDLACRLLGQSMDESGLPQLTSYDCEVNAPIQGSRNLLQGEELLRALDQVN
UniProt P97481: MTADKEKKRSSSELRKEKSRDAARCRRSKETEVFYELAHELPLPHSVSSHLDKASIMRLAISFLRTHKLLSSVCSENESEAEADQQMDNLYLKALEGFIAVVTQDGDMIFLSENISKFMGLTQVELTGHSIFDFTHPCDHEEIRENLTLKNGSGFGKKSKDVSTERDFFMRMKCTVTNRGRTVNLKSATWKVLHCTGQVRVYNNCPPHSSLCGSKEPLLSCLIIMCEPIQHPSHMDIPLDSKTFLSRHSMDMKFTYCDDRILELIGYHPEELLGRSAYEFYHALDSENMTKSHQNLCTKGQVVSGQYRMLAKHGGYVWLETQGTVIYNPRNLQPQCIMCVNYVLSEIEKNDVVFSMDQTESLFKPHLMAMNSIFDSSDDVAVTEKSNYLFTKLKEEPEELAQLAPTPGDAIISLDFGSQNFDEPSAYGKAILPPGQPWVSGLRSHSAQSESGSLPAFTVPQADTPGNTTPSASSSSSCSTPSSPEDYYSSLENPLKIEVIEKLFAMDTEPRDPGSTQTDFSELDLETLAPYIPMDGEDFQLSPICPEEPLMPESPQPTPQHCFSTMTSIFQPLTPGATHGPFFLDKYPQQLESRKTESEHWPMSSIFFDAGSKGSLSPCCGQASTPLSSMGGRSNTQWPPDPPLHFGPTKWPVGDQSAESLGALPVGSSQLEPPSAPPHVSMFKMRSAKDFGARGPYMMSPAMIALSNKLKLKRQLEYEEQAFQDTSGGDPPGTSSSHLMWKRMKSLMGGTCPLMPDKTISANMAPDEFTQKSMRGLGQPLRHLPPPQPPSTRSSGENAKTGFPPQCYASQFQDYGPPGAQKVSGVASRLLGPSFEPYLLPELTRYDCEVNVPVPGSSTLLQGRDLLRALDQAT
UniProt Q61324: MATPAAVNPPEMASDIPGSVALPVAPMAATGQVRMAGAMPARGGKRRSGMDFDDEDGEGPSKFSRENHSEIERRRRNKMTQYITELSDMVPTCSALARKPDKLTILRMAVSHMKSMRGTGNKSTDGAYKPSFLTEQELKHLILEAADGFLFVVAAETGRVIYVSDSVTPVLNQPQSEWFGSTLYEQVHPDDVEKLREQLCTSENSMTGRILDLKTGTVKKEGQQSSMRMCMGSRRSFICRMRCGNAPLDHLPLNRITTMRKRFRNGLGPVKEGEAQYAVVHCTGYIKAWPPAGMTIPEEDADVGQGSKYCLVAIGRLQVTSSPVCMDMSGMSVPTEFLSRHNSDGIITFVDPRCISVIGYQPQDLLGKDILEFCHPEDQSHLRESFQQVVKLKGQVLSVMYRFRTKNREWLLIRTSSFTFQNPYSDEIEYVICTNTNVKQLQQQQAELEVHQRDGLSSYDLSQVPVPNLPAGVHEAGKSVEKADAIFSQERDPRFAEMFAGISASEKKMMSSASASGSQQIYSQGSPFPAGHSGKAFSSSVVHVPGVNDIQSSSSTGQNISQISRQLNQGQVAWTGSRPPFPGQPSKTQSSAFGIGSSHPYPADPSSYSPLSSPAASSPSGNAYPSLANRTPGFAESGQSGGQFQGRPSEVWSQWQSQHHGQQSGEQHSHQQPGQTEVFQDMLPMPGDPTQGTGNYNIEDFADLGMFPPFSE

Measured: binding

aryl hydrocarbon nuclear receptor translocator 2 (ARNT2), endogenous in murine Min6 cells (from UniProt Q61324 1-712)
binds: all assays above

Reference: US20080102032A1
